SMILES strings stand for the structures. Values joined by “and” are separate entries in the source; they are usually repeats but may differ in a detail not shown here. Identical values can stand only once. Counter-ions that a name gives are not always drawn. ± gives the standard deviation of the averaged measurements. The list shows a part of the results. Many values rest on one well or one pass, so single values are uncertain.

54 compounds from the supplement of paper PMC3682954 can be followed below.

The test system of this assay is RAW 264.7. The experiment in a line: HMGB1-induced TNF-alpha production relative to HMGB1-stimulated control; higher = more TNF-alpha secretion (less inhibition). The conditions noted are these: stimulus: HMGB1 5 ug/ml, 18 h.
Setting [1] is: compound concentration: 1 ug/ml.

With `CC(O)Cn1cnc2c1c(=O)n(C)c(=O)n2C` (configuration not stated), for the setting “compound concentration: 3 uM”, the “HMGB1-induced TNF-alpha production” value came out at 72.5%.
For `N[C@@H](Cc1c[nH]c2ccccc12)C(=O)O`, the “HMGB1-induced TNF-alpha production” value (compound concentration: 3 uM) was found to be 84.3%.
On to `N[C@@H](Cc1c[nH]c2ccccc12)C(=O)O` [L-Tryptophan], for which the “HMGB1-induced TNF-alpha production” value reads like this: under setting [1], 58.6%; (compound concentration: 3 uM) 90.9%.
Regarding `O=C(OOC(=O)c1ccccc1)c1ccccc1`, the “HMGB1-induced TNF-alpha production” value (compound concentration: 3 uM) stood at 78.2%.
The same measure, in the same setting: as for `Nc1cc(=O)[nH]c(N)n1` [2,4-Diamino-6-pyrimidinone], the figure is 95.2%; as for `CCC1(C)OC(=O)N(C)C1=O` (configuration not stated), 77.1%; as for `Cc1ccc2nc(CN(CCN(Cc3nc4ccc(C)cc4[nH]3)Cc3nc4ccc(C)cc4[nH]3)Cc3nc4ccc(C)cc4[nH]3)[nH]c2c1`, 46.1%.
For the compound `COc1cc(OC)c2c(c1)OC(c1ccc(O)cc1)CC2=O` (configuration not stated) [4'-Hydroxy-5,7-dimethoxyflavanone], under setting [1], the “HMGB1-induced TNF-alpha production” value was 92.3%.
On to `NC(=O)CCCCC1CCSS1` (configuration not stated), for which the “HMGB1-induced TNF-alpha production” value (compound concentration: 3 uM) was 88.5%.
On the same count and under the same terms, as for `CC(C)NC[C@@H](O)COc1ccc(CC(N)=O)cc1` [(R)-(+)-Atenolol], the figure is 107%; as for `NS(=O)(=O)c1cc2c(cc1C(F)(F)F)NCNS2(=O)=O`, 83.6%.
On the same count and under the same terms, the figure for `NS(=O)(=O)c1cc2c(cc1C(F)(F)F)NCNS2(=O)=O` [Hydroflumethiazide] is 72.3%; for `OC[C@H]1O[C@@H](n2cnc3c(N[C@H]4CCC[C@@H]4O)ncnc32)[C@H](O)[C@@H]1O` it is 86.8%.
As to `COC1(C2=NCCN2)COc2ccccc2O1` (configuration not stated), the “HMGB1-induced TNF-alpha production” value (compound concentration: 3 uM) came to 116%.
The same measure, in the same setting: as for `CCn1c(=O)[nH]c2cc(Cl)c(Cl)cc21`, the figure is 88.4%; as for `CN1C(=O)CC[C@H]1c1cccnc1`, 71.1%.
As to `CN1C(=O)CC[C@H]1c1cccnc1` [(-)-Cotinine], the “HMGB1-induced TNF-alpha production” value runs as follows: under setting [1], 76.9%; (compound concentration: 3 uM) 87.3 ± 14%.
As to `CC[C@@]1(O)C[C@H](O[C@H]2C[C@H](N(C)C)[C@H](O[C@H]3C[C@H](O)[C@H](O[C@H]4CCC(=O)[C@H](C)O4)[C@H](C)O3)[C@H](C)O2)c2c(cc3c(c2O)C(=O)c2c(O)cccc2C3=O)[C@H]1C(=O)OC` [Aclarubicin], where the note is “compound concentration: 3 uM”, the “HMGB1-induced TNF-alpha production” value was 20.4%.
Turning to `Cc1cc2c(C(C)C)c(O)c(O)c(C=Nc3ccc4c(c3)CCN4S(C)(=O)=O)c2c(O)c1-c1c(C)cc2c(C(C)C)c(O)c(O)c(C=Nc3ccc4c(c3)CCN4S(C)(=O)=O)c2c1O`, under setting [1], the “HMGB1-induced TNF-alpha production” value is 71%.
For `CC[C@@H]1C(=O)OC[C@@H]1Cc1cncn1C` [(+)-Pilocarpine hydrochloride], under “compound concentration: 3 uM”, the “HMGB1-induced TNF-alpha production” value was determined as 107%.
As for `CC[C@@H]1C(=O)OC[C@@H]1Cc1cncn1C` [Pilocarpine hydrochloride], the “HMGB1-induced TNF-alpha production” value under setting [1] stood at 83.5%.
For `CC[C@@H]1C(=O)OC[C@@H]1Cc1cncn1C`, the “HMGB1-induced TNF-alpha production” value (compound concentration: 3 uM) is 97.5% and 105%.
With `CC[C@@H]1C(=O)OC[C@@H]1Cc1cncn1C` [Pilocarpine nitrate], the “HMGB1-induced TNF-alpha production” value (compound concentration: 3 uM) is 94 ± 47%.
`CC[C@@H]1C(=O)OC[C@@H]1Cc1cncn1C` [Pilocarpine]: the “HMGB1-induced TNF-alpha production” value (compound concentration: 3 uM) is 112%.
`Cc1ccc2oc(=O)c(-c3ccc(Cl)cc3)c(C)c2c1` [3(4'-Chlorophenyl)-4,6-dimethylcoumarin]: under setting [1], the “HMGB1-induced TNF-alpha production” value came to 74.7%.
Take `CSC(=N)NCCC[C@H](N)C(=O)O` [S-Methyl-L-thiocitrulline acetate]: where the note is “compound concentration: 3 uM”, the “HMGB1-induced TNF-alpha production” value turned out to be 115%.
Regarding `CO[C@@H]1[C@@H](O[C@@H]2O[C@H](C)[C@@H](O[C@H]3C[C@@](C)(O)[C@@H](OC(=O)CC(C)C)[C@H](C)O3)[C@H](N(C)C)[C@H]2O)[C@@H](CC=O)C[C@@H](C)[C@@H](O)/C=C/C=C/C[C@@H](C)OC(=O)C[C@H]1OC(C)=O` [Josamycin], the “HMGB1-induced TNF-alpha production” value amounted to 76.1% under setting [1] and 94.4% (compound concentration: 3 uM).
On to `O=c1oc2c(O)c(O)cc3c(=O)oc4c(O)c(O)cc1c4c23`, for which the “HMGB1-induced TNF-alpha production” value (compound concentration: 3 uM) was 90.9 ± 15%.
As for `O=c1oc2c(O)c(O)cc3c(=O)oc4c(O)c(O)cc1c4c23` [Ellagic acid hydrate], the “HMGB1-induced TNF-alpha production” value under setting [1] came out at 85.8%.
With `NC(N)=NC(=O)c1nc(Cl)c(N)nc1N`, the “HMGB1-induced TNF-alpha production” value (compound concentration: 3 uM) was 107%.
Consider `NS(=O)(=O)c1cc2c(cc1Cl)NC(C1CC3C=CC1C3)NS2(=O)=O` (configuration not stated) [Cyclothiazide], for which, under “compound concentration: 3 uM”, the “HMGB1-induced TNF-alpha production” value was found to be 82.3%.
Turning to `NS(=O)(=O)c1cc2c(cc1Cl)NC(C1CC3C=CC1C3)NS2(=O)=O` (configuration not stated), the “HMGB1-induced TNF-alpha production” value (compound concentration: 3 uM) was 85.6%.
As to `O=C1NS(=O)(=O)c2ccccc21`, where the note is “compound concentration: 3 uM”, the “HMGB1-induced TNF-alpha production” value stood at 80.1%.
Same read-out and setting: as for `CC(=O)CC(c1ccccc1)c1c(O)c2ccccc2oc1=O` (configuration not stated), the figure is 90.2 ± 8.7%.
The same measure, in the same setting: the figure for `CC(=O)CC(c1ccccc1)c1c(O)c2ccccc2oc1=O` (configuration not stated) [Warfarin] is 90.2%.
Still for that read-out and setting: the figure for `S=C(S)N1CCCC1` [Ammonium pyrrolidinedithiocarbamate] is 95%; for `CCN(CC)CC(=O)Nc1c(C)cccc1C` [Lidocaine hydrochloride] it is 113%; for `CCN(CC)CC(=O)Nc1c(C)cccc1C` it is 88.8% and 112%.
With `CCN(CC)CC(=O)Nc1c(C)cccc1C` [Lidocaïne hydrochloride], the “HMGB1-induced TNF-alpha production” value (compound concentration: 3 uM) amounted to 33.2%.
Take `CCN(CC)CC(=O)Nc1c(C)cccc1C` [Lidocaine]: where the note is “compound concentration: 3 uM”, the “HMGB1-induced TNF-alpha production” value was found to be 103%.
Still for that read-out and setting: the figure for `CC(=O)OCC(=O)[C@@]12OC(C)(C)O[C@@H]1C[C@H]1[C@@H]3C[C@H](F)C4=CC(=O)C=C[C@]4(C)[C@@]3(F)[C@@H](O)C[C@@]12C` [Fluocinonide] is 47.5%.
The same measure, in the same setting: as for `CC(=O)OCC(=O)[C@@]12OC(C)(C)O[C@@H]1C[C@H]1[C@@H]3C[C@H](F)C4=CC(=O)C=C[C@]4(C)[C@@]3(F)[C@@H](O)C[C@@]12C`, the figure is 48.1%.
Turning to `c1ccc2c(CC3=NCCN3)cccc2c1` [Naphazoline], where the note is “compound concentration: 3 uM”, the “HMGB1-induced TNF-alpha production” value is 84%.
For `c1ccc2c(CC3=NCCN3)cccc2c1` [Naphazoline hydrochloride], the “HMGB1-induced TNF-alpha production” value (compound concentration: 3 uM) came to 89.1 ± 40%.
`c1ccc2c(CC3=NCCN3)cccc2c1`: for the setting “compound concentration: 3 uM”, the “HMGB1-induced TNF-alpha production” value was 90.3%.
Consider `O=C(O)[C@@H]1C[C@H](C(=O)O)N1` [cis-Azetidine-2,4-dicarboxylic acid], for which the “HMGB1-induced TNF-alpha production” value (compound concentration: 3 uM) worked out at 89.2%.
Same read-out and setting: as for `Ic1ccc(N2CCN(Cc3c[nH]c4ncccc34)CC2)cc1` [L-750,667 trihydrochloride], the figure is 110%.
Consider `OCc1ccccc1O[C@@H]1O[C@H](CO)[C@@H](O)[C@H](O)[C@H]1O` [D(-)-Salicin], for which, under setting [1], the “HMGB1-induced TNF-alpha production” value amounted to 76%.
Consider `OCc1ccccc1O[C@@H]1O[C@H](CO)[C@@H](O)[C@H](O)[C@H]1O`, for which, where the note is “compound concentration: 3 uM”, the “HMGB1-induced TNF-alpha production” value worked out at 98.9%.
Same read-out and setting: as for `Nc1ncnc2c1nc(Br)n2C1OC2COP(=O)(O)O[C@@H]2C1O` (some centres not stated) [8-Bromo-cAMP sodium], the figure is 59.1%; as for `C=CC1=C(C(=O)O)N2C(=O)[C@@H](NC(=O)/C(=N\O)c3csc(N)n3)[C@H]2SC1` [Cefdinir], 112%; as for `C=CC1=C(C(=O)O)N2C(=O)[C@@H](NC(=O)/C(=N\O)c3csc(N)n3)[C@H]2SC1`, 101 ± 8.9%.
For `Cc1cn([C@H]2C=C[C@@H](CO)O2)c(=O)[nH]c1=O`, under “compound concentration: 3 uM”, the “HMGB1-induced TNF-alpha production” value turned out to be 97.5%.
As to `Cc1cn([C@H]2C=C[C@@H](CO)O2)c(=O)[nH]c1=O` [Stavudine], the “HMGB1-induced TNF-alpha production” value (compound concentration: 3 uM) stood at 104%.
